# The campaign covered roughly 360,000 compounds. About 10,000 (2.8%) were called active. Inconclusive means that the source gave no clear call. Such entries were picked first, then a sample of the others. The call rests on the fitted dose curve; in most records, active means well fitted inhibition curve with a large enough effect; inconclusive means small, poorly fitted or top-dose-only effect; inactive means flat fitted curve, though single readings scatter. Potencies of inconclusive entries are doubtful fits and often do not repeat.
# The chains behind the UniProt entries cited, without tags or fusion partners.
# UniProt P53350, whole entry, looked up: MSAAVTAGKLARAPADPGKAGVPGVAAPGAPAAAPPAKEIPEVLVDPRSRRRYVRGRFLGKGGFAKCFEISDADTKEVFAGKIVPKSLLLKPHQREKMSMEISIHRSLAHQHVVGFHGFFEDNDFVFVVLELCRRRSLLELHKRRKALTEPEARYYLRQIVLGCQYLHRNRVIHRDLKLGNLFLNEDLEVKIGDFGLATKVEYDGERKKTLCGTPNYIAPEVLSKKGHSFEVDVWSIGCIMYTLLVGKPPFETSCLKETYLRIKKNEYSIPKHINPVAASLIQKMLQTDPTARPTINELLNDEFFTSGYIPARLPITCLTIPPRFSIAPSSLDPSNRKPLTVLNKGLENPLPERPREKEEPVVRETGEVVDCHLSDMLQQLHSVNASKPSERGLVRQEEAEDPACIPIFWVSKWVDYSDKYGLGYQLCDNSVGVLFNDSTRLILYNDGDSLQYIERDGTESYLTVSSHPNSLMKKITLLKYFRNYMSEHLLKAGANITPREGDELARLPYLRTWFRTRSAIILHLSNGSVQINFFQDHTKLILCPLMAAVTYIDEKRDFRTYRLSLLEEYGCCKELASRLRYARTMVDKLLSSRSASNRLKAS
# Target: Serine/threonine-protein kinase PLK1 (Homo sapiens) (UniProt P53350)
# Assay: qHTS for Inhibitors of PLK1-PDB (polo-like kinase 1 - polo-box domain): Primary Screen; further: nearly all actives have a fitted effect of over 65% in size; on max response, negative = inhibition: series mostly up to about 57 µM
# Details: Plk1 PBD binding of FITC phosphopeptide, fluorescence polarization
# On the % scale 0 is the no-effect control and ±100 the full control effect; potency means the concentration at half of the fitted maximal effect.
SMILES,Potency,"max response, negative = inhibition"
COc1cc(NC(=O)/C=C/c2ccccc2)c(C(=O)O)cc1OC,active: 16.8 µM,–
CC(=O)N1N=C(c2cccc(NS(C)(=O)=O)c2)CC1c1cccs1 (stereo not drawn),–,inconclusive: -30.3% [inhibitor]
O=C(CN1C(=O)NC2(CCCCCC2)C1=O)c1cccs1,–,inactive: -3.09%
COc1ccc(Cn2nnc3c(=O)[nH]c(C(=O)NCCc4ccc(F)cc4)nc32)cc1OC,"inconclusive: 26.7 µM [inhibitor, partial curve]",–
CCOC(=O)c1[nH]c2ccccc2c1NC(=S)Nc1cccc(C)c1C,–,inactive: -16.6%
Oc1ccc2ccccc2c1C=Nc1ccccc1,"inconclusive: 37.7 µM [inhibitor, single point]",–
COc1ccc(CCNC(=O)c2cc(-c3ccco3)nc3ccccc23)cc1,"inconclusive: 21.2 µM [inhibitor, single point]",–
CN1C(=O)C(c2ccccc2[N+](=O)[O-])C(=O)c2ccccc21 (stereo not drawn),"inconclusive: 29.9 µM [inhibitor, partial curve]",–
CCc1cc(SC#N)cc(C)c1N,"inconclusive: 29.9 µM [inhibitor, partial curve]",–
Cc1ccsc1C1C2=C(CC(C)(C)CC2=O)Nc2ncnn21 (stereo not drawn),"inconclusive: 26.7 µM [inhibitor, partial curve]",–
CCn1nc(NS(=O)(=O)c2ccc(NC(C)=O)cc2)c2cc3ccc(C)cc3nc21,"inconclusive: 29.9 µM [inhibitor, partial curve]",–
COc1ccc(-c2onc3ccc(Br)cc23)cc1,"inconclusive: 23.8 µM [inhibitor, partial curve]",–
CCOc1ccc(C(=O)/C=C/c2ccc(OC)c(OC)c2)cc1,–,inactive: -0.985%
C(=C\c1sc(Nc2ccccc2)n[n+]1-c1ccccc1)/c1ccccc1,"inconclusive: 21.2 µM [inhibitor, single point]",–
C/C(=N\NC(=O)c1ccccc1)c1nc2ccccc2n1C,–,inactive: -0.228%
C/[N+]([O-])=C\c1cccc(OCCN2CCN(c3ncc(C(F)(F)F)cc3Cl)CC2)c1,active: 11.9 µM,–
CC(OC(=O)c1cccc(S(=O)(=O)N2CCN(C)CC2)c1)C(=O)Nc1ccc(C(N)=O)cc1 (stereo not drawn),–,inactive: -2.45%
Nc1ccc(N2CCCC2)c(S(=O)(=O)Nc2cccc(C(F)(F)F)c2)c1,active: 4.74 µM,–
Cc1ccnc2nc(C(=O)OCC(=O)NC3CCCC(C)C3C)nn12 (stereo not drawn),–,inactive: -6.42%
COC(=O)c1ccccc1C(=O)c1ccc2c(c1)NC(=O)CO2,"inconclusive: 13.4 µM [inhibitor, partial curve]",–
CC(CCc1ccccc1)NS(=O)(=O)c1ccccc1Cl (stereo not drawn),"inconclusive: 21.2 µM [inhibitor, partial curve]",–
CCCCCCCCC1=NCCc2c1[nH]c1ccccc21,active: 23.8 µM,–
O=C(COc1ccc(Br)cc1CNCCc1ccccc1)NCc1ccccc1,"inconclusive: 29.9 µM [inhibitor, partial curve]",–
O=C(/C=C/c1ccccn1)c1cc(Cl)cc(Cl)c1O,"inconclusive: 13.4 µM [inhibitor, partial curve]",–
Cc1nnc(SC(C(=O)Nc2cc(Cl)cc(Cl)c2)c2ccccc2)[nH]c1=O (stereo not drawn),"inconclusive: 29.9 µM [inhibitor, partial curve]",–

SMILES,Potency,"max response, negative = inhibition"
CCOC(=O)N1CCN(S(=O)(=O)c2ccc(Cl)cc2)CC1,–,inactive: 1.83%
CC(C)OCCCNC(=O)C1CCN(S(=O)(=O)N2CCCC2)CC1,"inconclusive: 26.7 µM [inhibitor, single point]",–
CCN(/C(N)=N/c1nc(C)cc(C)n1)c1ccccc1,active: 26.7 µM,–
CCOC(=O)/C(=C\c1cccc(O)c1)c1nc2sc(C)c(C)c2c(=O)[nH]1,active: 4.74 µM,–
COc1ccc(N=C(c2ccccc2)c2c(C)[nH]n(-c3ccccc3)c2=O)c(OC)c1,–,inactive: -2.63%
COc1cc(/C=C2\SC(=O)NC2=O)ccc1Oc1cnccn1,"inconclusive: 37.7 µM [inhibitor, partial curve]",–
O=P(c1ccccc1)(c1ccccc1)c1cc(S(=O)(=O)O)ccc1O,"inconclusive: 37.7 µM [inhibitor, single point]",–
COc1ccccc1N(CC(=O)N1CCN(c2ccc(F)cc2)CC1)S(=O)(=O)c1ccc(C)cc1,–,inactive: -1.9%
C=C(CC)C(=O)c1ccc(OCC(=O)O)c(Cl)c1Cl,"inconclusive: 26.7 µM [inhibitor, partial curve]",–
Cc1ccc(-c2cc[n+](Cc3ccccc3)cc2)cc1,active: 18.9 µM,–
Cc1nc(SCC(=O)Nc2ccc3[nH]c(=O)[nH]c3c2)nc(C)c1C,"inconclusive: 29.9 µM [inhibitor, partial curve]",–
CC1=CC2=NC(=O)/C(=C\c3ccc(OC(=O)c4ccco4)cc3)C(=N)N2O1,–,inactive: -3.55%
O=C(CSCC(=O)NC1CCCC1)Nc1ccccc1,–,inconclusive: -32.7% [inhibitor]
NC(CCC(=O)NC(CS)C(=O)NCC(=O)O)C(=O)O (stereo not drawn),–,inactive: -8.88%
Cc1c(-c2nc(-c3cccnc3)no2)cccc1[N+](=O)[O-],"inconclusive: 26.7 µM [inhibitor, partial curve]",–
Cc1ccc(OCC(=O)N(Cc2cccs2)C2CCS(=O)(=O)C2)cc1 (stereo not drawn),–,inactive: 0.852%
Cc1ccc(NC(=O)CN(C)C(=O)CSc2ccccc2F)cc1,active: 21.2 µM,–
Cc1sc(NC(=O)C2CCCCC2C(=O)O)c(C(N)=O)c1-c1ccccc1 (stereo not drawn),"inconclusive: 21.2 µM [inhibitor, single point]",–
Cc1cccc(-n2c(O)c(C=NC3CCS(=O)(=O)C3)c3ccccc3c2=O)c1 (stereo not drawn),–,inactive: -3.82%
Cc1nn(-c2ccccc2)c2nc(=O)n(-c3ccccc3)cc12,active: 2.99 µM,–
Nc1nn2c(-c3ccccc3)cc(=O)[nH]c2c1N=Nc1ccc(Br)cc1,"inconclusive: 26.7 µM [inhibitor, partial curve]",–
CC1=C(C(=O)OCc2ccccc2)C(c2ccc(C#N)cc2)NC(=O)N1CCCC(=O)O (stereo not drawn),–,inactive: 0.986%
COC(=O)Nc1ccc(S(=O)(=O)N2CCC(Cc3ccccc3)CC2)cc1,"inconclusive: 21.2 µM [inhibitor, partial curve]",–
Cn1ccc(C(=O)OCC(=O)c2ccccc2)n1,"inconclusive: 18.9 µM [inhibitor, single point]",–
Cc1ccc(CNC(C)c2ccccc2)cc1 (stereo not drawn),"inconclusive: 29.9 µM [inhibitor, partial curve]",–

SMILES,Potency,"max response, negative = inhibition"
COc1ccc(-n2ccnc2SCC(=O)NCc2ccc(F)cc2)c(OC)c1,–,inactive: -11.1%
CCCn1c(SCC(=O)Nc2cccc(C)n2)nnc1C(C)C,"inconclusive: 23.8 µM [inhibitor, single point]",–
COc1cc(C(=S)N2CCOCC2)ccc1OC(=O)c1ccccc1,–,inactive: -22.6%
CC(=O)c1c(C)[nH]c(C(=O)COC(=O)c2cc(S(=O)(=O)N(C)c3ccccc3)ccc2Cl)c1C,"inconclusive: 29.9 µM [inhibitor, partial curve]",–
Cn1cc(Br)c(C(=O)Nc2sc3c(c2C#N)CCC3)n1,"inconclusive: 9.47 µM [inhibitor, partial curve]",–
Cc1csc(NC(=O)c2ccc(Cl)cc2[N+](=O)[O-])n1,"inconclusive: 18.9 µM [inhibitor, single point]",–
Cc1nnc(C)n1/N=C/c1ccc(-c2ccccc2Cl)o1,"inconclusive: 23.8 µM [inhibitor, partial curve]",–
Cc1cc(C)c2c(c1)SC1=NC(c3ccccc3)(C(F)(F)F)NC(=O)N12 (stereo not drawn),"inconclusive: 21.2 µM [inhibitor, partial curve]",–
CNC(=O)CSCc1cnn(-c2ccccc2)c1-n1cccc1,–,inactive: 0.853%
O=[n+]1cc(-c2ccc(Cl)cc2)n([O-])c2c1CCC2,"inconclusive: 37.7 µM [inhibitor, single point]",–
O=S(=O)(Nc1nc(-c2sccc2Cl)cs1)c1cc(Cl)ccc1Cl,active: 16.8 µM,–
CC(=O)Nc1ccc(C(=O)N(C)c2ccccc2)cc1,–,inactive: -7.74%
Cc1nc2ccc(C(=O)O)cc2c2c1CC(C)S2 (stereo not drawn),"inconclusive: 23.8 µM [inhibitor, partial curve]",–
COc1cc(CN2CCNC(=O)C2CC(=O)N(C)CCC2CCOCC2)cc(OC)c1 (stereo not drawn),active: 26.7 µM,–
CCn1c2ccccc2c2cc(NC(=O)C(C)Oc3ccc(OC)cc3)ccc21 (stereo not drawn),–,inactive: 0.237%
CC(C)(C)C(=O)Cn1c(=N)n(Cc2ccccc2Cl)c2ccccc21,"inconclusive: 29.9 µM [inhibitor, single point]",–
Cc1ccc(C(=O)Nc2ccncc2)cc1[N+](=O)[O-],–,inactive: -8.99%
Cc1ccc(C(=O)CCS(=O)(=O)c2ccc(Br)cc2)cc1,"inconclusive: 1.68 µM [inhibitor, full curve]",–
CC(C)(C)c1ccc(S(=O)(=O)NC(=O)C2(C)CCN2C(=O)Cc2cccc3ccccc23)cc1 (stereo not drawn),"inconclusive: 67 µM [inhibitor, partial curve]",–
Cc1nc2sc(C(=O)O)c(N)c2c2c1COC(C)(C)C2,"inconclusive: 26.7 µM [inhibitor, single point]",–
CCOC(CNC(=O)CCc1c(C)nc2nc(C)nn2c1C)OCC,"inconclusive: 26.7 µM [inhibitor, partial curve]",–
Cc1ccc(C)c(NC(=S)N2CCN(c3ccccn3)CC2)c1,–,inactive: -6.78%
COc1ccc(C2CC(=O)N3CN(c4ccc(C)c(Cl)c4)CSC3=C2C#N)cc1 (stereo not drawn),active: 23.8 µM,–

# Among those listed so far, 3 contain two or more sulfur atoms:
SMILES,Potency,"max response, negative = inhibition"
CC(=O)N1N=C(c2cccc(NS(C)(=O)=O)c2)CC1c1cccs1 (stereo not drawn),–,inconclusive: -30.3% [inhibitor]
Cc1ccc(OCC(=O)N(Cc2cccs2)C2CCS(=O)(=O)C2)cc1 (stereo not drawn),–,inactive: 0.852%
O=S(=O)(Nc1nc(-c2sccc2Cl)cs1)c1cc(Cl)ccc1Cl,active: 16.8 µM,–

# Reference: PubChem BioAssay AID720504 (National Center for Advancing Translational Sciences (NCATS), 2013)
